The results in this text go back to article PMC4040925.

Chains of the proteins cited; added tags and fusions are not shown.
UniProt P50552: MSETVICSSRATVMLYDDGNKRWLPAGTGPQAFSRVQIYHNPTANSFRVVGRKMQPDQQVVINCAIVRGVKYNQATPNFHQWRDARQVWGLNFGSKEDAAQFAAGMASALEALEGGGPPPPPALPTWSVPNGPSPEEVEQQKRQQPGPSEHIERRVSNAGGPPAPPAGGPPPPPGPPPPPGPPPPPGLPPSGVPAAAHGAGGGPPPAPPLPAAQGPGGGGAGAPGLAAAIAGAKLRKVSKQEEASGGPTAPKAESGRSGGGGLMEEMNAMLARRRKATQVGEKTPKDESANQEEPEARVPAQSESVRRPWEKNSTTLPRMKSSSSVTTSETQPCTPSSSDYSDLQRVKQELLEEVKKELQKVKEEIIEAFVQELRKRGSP

These are yes or no findings as the source states them, for the method shown.

This experiment deals with T1, p130CAS (UniProt P56945).
T1 sequence: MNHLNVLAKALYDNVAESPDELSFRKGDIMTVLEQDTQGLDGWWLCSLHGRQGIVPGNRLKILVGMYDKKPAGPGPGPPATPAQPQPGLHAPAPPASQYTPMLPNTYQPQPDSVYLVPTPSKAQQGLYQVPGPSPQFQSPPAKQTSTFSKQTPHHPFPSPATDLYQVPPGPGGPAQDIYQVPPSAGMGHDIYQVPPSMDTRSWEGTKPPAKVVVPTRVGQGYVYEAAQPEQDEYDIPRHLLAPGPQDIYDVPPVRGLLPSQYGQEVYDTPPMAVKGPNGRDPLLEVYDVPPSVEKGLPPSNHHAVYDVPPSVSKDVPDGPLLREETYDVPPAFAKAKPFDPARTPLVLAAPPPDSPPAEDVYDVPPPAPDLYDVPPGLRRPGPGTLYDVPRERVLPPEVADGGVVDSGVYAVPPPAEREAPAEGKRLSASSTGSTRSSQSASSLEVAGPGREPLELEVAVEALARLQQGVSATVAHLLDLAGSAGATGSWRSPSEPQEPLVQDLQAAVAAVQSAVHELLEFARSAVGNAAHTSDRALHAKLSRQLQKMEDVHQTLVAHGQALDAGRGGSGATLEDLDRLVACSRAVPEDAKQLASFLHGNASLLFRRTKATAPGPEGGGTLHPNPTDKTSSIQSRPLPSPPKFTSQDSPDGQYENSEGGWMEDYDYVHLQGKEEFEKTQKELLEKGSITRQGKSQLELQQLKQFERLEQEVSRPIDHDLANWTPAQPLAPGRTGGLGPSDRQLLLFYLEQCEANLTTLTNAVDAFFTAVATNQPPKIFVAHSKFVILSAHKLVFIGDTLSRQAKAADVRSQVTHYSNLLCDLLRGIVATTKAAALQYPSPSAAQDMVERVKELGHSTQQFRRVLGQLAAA
As to the kind of experiment: fluorescence cross-correlation spectroscopy (FCCS); cytosol of live REF52 cells co-expressing one protein tagged with meGFP and the other with TDmKate2; 37°C; association score against the negative control meGFP + TDmKate2 (Fisher's exact test, p-value <0.0001); apparent Ka.

Regarding VASP (from UniProt P50552 1-380), the binding entry was “no binding”.
